Measurements from “University of Dundee, Small-Polar-MMV Screening Library” (2021), ChEMBL document CHEMBL3988442.

By UniProt entry, the sequences of proteins in these tests, tags left out. Residues count along the entry.
UniProt Q8IDJ8, 1-583: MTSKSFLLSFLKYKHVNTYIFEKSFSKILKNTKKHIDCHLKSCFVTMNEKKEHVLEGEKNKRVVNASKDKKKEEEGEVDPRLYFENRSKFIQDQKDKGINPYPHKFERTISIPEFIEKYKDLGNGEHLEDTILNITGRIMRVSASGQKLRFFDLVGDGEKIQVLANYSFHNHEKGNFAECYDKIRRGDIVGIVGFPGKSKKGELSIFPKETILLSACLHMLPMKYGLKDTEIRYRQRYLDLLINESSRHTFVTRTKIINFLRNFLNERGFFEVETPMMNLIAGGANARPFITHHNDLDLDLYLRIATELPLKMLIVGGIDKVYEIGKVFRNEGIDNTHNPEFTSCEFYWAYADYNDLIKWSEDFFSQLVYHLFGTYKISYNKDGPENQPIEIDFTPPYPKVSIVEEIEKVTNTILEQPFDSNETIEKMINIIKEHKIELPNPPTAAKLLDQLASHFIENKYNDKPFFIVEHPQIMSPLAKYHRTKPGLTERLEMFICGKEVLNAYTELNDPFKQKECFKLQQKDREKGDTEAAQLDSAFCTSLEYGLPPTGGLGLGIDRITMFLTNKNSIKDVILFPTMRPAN

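Enzyme assay of the cytosolic lysyl-tRNA synthetase in 384-well plates, read by luminescence. Target: Lysine-tRNA ligase, Plasmodium falciparum 3D7 (UniProt Q8IDJ8). Concentration: 30 µM. Higher reads as stronger inhibition, judged from the few compounds that gave an IC50. About 69,000 compounds were tested under these conditions; 0.071% (about 49) showed 50% or more at least once.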

The filed quantity is “Percent Effect” (%). How 0% and 100% were set is not recorded. Most values in the screen are low, and negative values occur. The compounds are a random part of those screened.

| # | Compound | Percent Effect |
|---|---|---|
| 1 | `CCCC(=O)N1CCCC(c2cc3cccnc3c(O)n2)C1` (configuration not stated) | 2.593 |
| 2 | `O=C(O)c1cc(NS(=O)(=O)c2ccc(Cl)s2)ccc1N1CCOCC1` | 5.288 |
| 3 | `Cc1cnn(C(C)C2CC2)c1NC(=O)c1ccco1` (configuration not stated) | 6.122 |
| 4 | `O=C(O)c1c(-c2cncnc2)ncc2c1CCN(CC1CCOC1)C2` (configuration not stated) | 2.364 |
| 5 | `O=C(NCCCn1nc2ccccn2c1=O)Nc1ccc(F)cc1F` | 1.461 |
| 6 | `Cc1cccc(CSc2ncc(Cl)c(C(=O)O)n2)c1` | 6.6 |
| 7 | `Cn1cc(CN2CCCC(CCc3ccc(F)cc3F)C2)cn1` (configuration not stated) | 2.251 |
| 8 | `Cc1nc(Cn2c3c(ccc2=O)CC(NC(N)=O)CC3)cs1` (configuration not stated) | 1.678 |
| 9 | `Cc1nc(C)c(CC(=O)NCc2ccc(F)cc2)s1` | 2.345 |
| 10 | `Cc1ccc(F)c(OC2(C(=O)O)CCN(C(=O)N3CCCC3)CC2)c1` | 0.8326 |
| 11 | `CS(=O)(=O)c1ccc(NC(=O)NCCC2=CCCCC2)cc1` | 5.146 |
| 12 | `Cc1cc(CNC(=O)c2cc(NC(=O)C(C)C)ccc2Cl)no1` | -4.874 |
| 13 | `Cc1cccc(CN2C[C@@H]3COC[C@]3(CNC(=O)c3ccsc3)C2)n1` | 1.425 |
| 14 | `CC(C)c1cc(N2CCSCC2)n2nccc2n1` | 1.178 |
| 15 | `Cc1nccc(C(=O)NC(COCC(C)C)c2ccco2)n1` (configuration not stated) | -1.644 |
| 16 | `O=C1CCc2cc(C(=O)NCc3ccc(Cl)s3)ccc2N1` | 3.752 |
| 17 | `CNc1cncc(C2CCN(C(=O)c3cnco3)CC2)n1` | 2.411 |
| 18 | `CCS(=O)(=O)CCNC(=O)C1(c2cccc(Cl)c2)CC1` | -4.04 |
| 19 | `Cc1nc(CNC(=O)c2cc(COc3cccc(F)c3)[nH]n2)n[nH]1` | 7.095 |
| 20 | `CCCN1CCc2[nH]cnc2C12CCN(C(=O)CCn1cccn1)CC2` | -0.4121 |
| 21 | `CCCNC(=O)NC(=O)CN1C=Nc2ccccc2S1(=O)=O` | 1.085 |
| 22 | `Cc1nc(C)c(C(=O)N2CCCN(Cc3cnn(C)c3)CC2)s1` | 10.9 |
| 23 | `CCn1c(Cn2cncn2)nnc1C1CCN(Cc2ccc(C)o2)CC1` | 4.007 |
| 24 | `CS(=O)(=O)N1CCC(C(=O)NCCNc2ncccn2)CC1` | 1.071 |
| 25 | `CO[C@H]1CCN(Cc2cccc(C)n2)[C@@H]2CN(Cc3cccnc3)C[C@H]12` | 1.864 |
| 26 | `O=C(CCS(=O)(=O)C1CCCC1)NCc1ccccc1Cn1cncn1` | 0.7805 |
| 27 | `COCCN(Cc1nccs1)c1nc2c(s1)c(C)nn2C` | -0.6647 |
| 28 | `Cc1ncsc1CN1CC2(CCCC2)CC1=O` | 2.497 |
| 29 | `Cc1cc(CN2CCN(C(=O)c3ccc(=O)n(C)c3)CC2)no1` | 6.095 |
| 30 | `Cc1ccc(C(=O)N2C[C@@H]3COC[C@]3(COc3cccnc3)C2)cn1` | 0.7568 |
| 31 | `Cc1nonc1CNC(=O)C(C)Oc1cccc(F)c1` (configuration not stated) | 1.515 |
| 32 | `CN(CC(=O)NC(C)(C)C)C(=O)c1cccn1CCc1ccccc1` | 2.472 |
| 33 | `CCn1cc(CN2CCCC(c3[nH]ncc3-c3ccc(C)cc3)C2)cn1` (configuration not stated) | 1.683 |
| 34 | `CCN(Cc1ccoc1)C(=O)c1ccncc1O` | 1.397 |
| 35 | `Cc1cc(C)n(CC(C)NCCn2nc(C)c(Cl)c2C)n1` (configuration not stated) | -0.08079 |
| 36 | `CC(C)N(C)Cc1cnc2n1CCN(Cc1cccc(F)c1)C2` | 2.837 |
| 37 | `COCC(=O)N1C[C@@H]2COC[C@]2(COC)C1` | 4.994 |
| 38 | `COCC(=O)N1CCC2(CC1)NC(=O)c1ccccc12` | -1.628 |
| 39 | `O=C(c1ccccn1)N1CCC2(CNS(=O)(=O)c3cnccc3O2)C1` (configuration not stated) | 2.965 |
| 40 | `Cc1ccc(C(C)NC(=O)N2CCCN(CC(F)F)CC2)s1` (configuration not stated) | 4.922 |
| 41 | `Cc1ccc(CS(=O)(=O)N2CC[C@H]3[C@H]2CC(=O)N3C)cc1` | -1.641 |
| 42 | `CN(Cc1cccc(O)c1)C(=O)c1ccc(CCC(C)(C)O)cc1` | -0.3369 |
| 43 | `COC(=O)C1=NOC(Cc2cc(OC)c3c(c2)OCO3)C1` (configuration not stated) | -2.017 |
| 44 | `Cc1cnn(CC2CCCCN2C(=O)c2ccc(C#N)c(C)n2)c1` (configuration not stated) | 1.55 |
| 45 | `CC(C)c1nc(CN(C)C(=O)CNC(N)=O)cs1` | 1.523 |
| 46 | `CO[C@H]1CN(C(C)C)C[C@@H]1NC(=O)c1cc(-c2ccccc2O)n[nH]1` | -3.132 |
| 47 | `O=C(O)[C@@H]1CN(C2CCOCC2)C[C@H]1C1CC1` | -1.636 |
| 48 | `Cc1cnn(CC2CN(Cc3nccn3CC(F)(F)F)CCO2)c1` (configuration not stated) | -3.801 |
| 49 | `CNc1cncc(C2CCCN2S(=O)(=O)c2cccc(F)c2)n1` (configuration not stated) | 1.359 |
| 50 | `CC(=O)N1CCCC(c2nc(-c3ccccc3)c[nH]2)C1` (configuration not stated) | 2.468 |
| 51 | `COc1cccc(CNC(=O)CCNS(=O)(=O)c2ccc(C)cc2)c1` | -0.01147 |
| 52 | `CC1(C)CC(=O)c2cnc3nc(N4CCCCC4)nc(O)c3c2C1` | -2.007 |
| 53 | `COC(=O)c1ccc(CNC(C)(C)c2ccccc2OC)o1` | 3.862 |
| 54 | `Cc1cccc(NC(=O)N2CC(C(=O)NC(C)C)C3(CCOCC3)C2)c1` (configuration not stated) | 9.628 |
| 55 | `NC(=O)C1CCN(C(=O)c2cccn2Cc2cccs2)CC1` | -2.766 |
| 56 | `CCOc1ncccc1CNC(=O)N1CCC(n2cncn2)CC1` | 0.6061 |
| 57 | `CCc1nc(CN2CCCN(C(=O)CC(F)(F)F)CC2)cs1` | 0.8295 |
| 58 | `CNC(=O)C(C)(C)N1CCC[C@H]1C(=O)NC1CC1` | 5.272 |
| 59 | `CC1(NC(=O)CNC(=O)C(C)(C)C)CCc2ccccc2C1` (configuration not stated) | 5.958 |
| 60 | `Cc1ccc(C(=O)N2CCC3(CCCC3)CC2)c(=O)[nH]1` | 1.901 |
| 61 | `O=C(c1cnccn1)N1CCC2(CC1)C(=O)NCC2c1ccccc1` (configuration not stated) | 1.227 |
| 62 | `Cc1cnc(CN(C)C2CCN(Cc3ccc(Cl)s3)C2)o1` (configuration not stated) | 0 |

The first 6 entries again:

| Compound | Percent Effect |
|---|---|
| `CCCC(=O)N1CCCC(c2cc3cccnc3c(O)n2)C1` (configuration not stated) | 2.593 |
| `O=C(O)c1cc(NS(=O)(=O)c2ccc(Cl)s2)ccc1N1CCOCC1` | 5.288 |
| `Cc1cnn(C(C)C2CC2)c1NC(=O)c1ccco1` (configuration not stated) | 6.122 |
| `O=C(O)c1c(-c2cncnc2)ncc2c1CCN(CC1CCOC1)C2` (configuration not stated) | 2.364 |
| `O=C(NCCCn1nc2ccccn2c1=O)Nc1ccc(F)cc1F` | 1.461 |
| `Cc1cccc(CSc2ncc(Cl)c(C(=O)O)n2)c1` | 6.6 |